Test results as given in PMC11821008.
Results are given in words; binding and its absence hold for the method and conditions named. In cells and extracts the contact can be indirect. Some binding calls cover weakened binding; strength is not graded here.

Target: sequestosome-1/p62 (human (endogenous in H460)) (UniProt Q13501)
Experiment: co-IP; H460 cells exposed to CK (30 µg/mL) for 12 h; 800 µg of lysate protein; IP with p62, ubiquitin (Ub) or mouse IgG antibodies, immunoblot for SIRT6 (n = 2)

- binding: binds
Substance: Silent information regulator 6 (SIRT6) (from UniProt Q8N6T7 1-355)
